According to PubChem BioAssay (NCATS):
Inconclusive results, whose numbers are uncertain, are shown with a selection of clear calls. Where the call is inconclusive, the potency comes from a doubtful curve fit. Active and inactive are the calls of the source. The call rests on the fitted dose curve; in most records, active means well fitted curve in the direction sought with a large enough effect; inconclusive means small, poorly fitted or top-dose-only effect, or another doubt; inactive means no such curve, though single readings can be large; an effect the other way counts as inactive or inconclusive.

Columns and labels:
[1] = Quantitative High-Throughput drug screen in 47 multiple myeloma cell lines against the NCATS MIPE library collection: KMS12PE_JCRB cell viability assay (AID 1918972); further: nearly all actives have a fitted effect of over 30% in size
In short: (§1)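 We plated 500 myeloma cells per well, pinned in MIPE 4.0 compounds, and incubated for 48 hours at 37C. ATP was then quantified with CellTiter-Glo, with DMSO and media-only wells defining 100% and 0%.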

[2] = Quantitative High-Throughput drug screen in 47 multiple myeloma cell lines against the NCATS MIPE library collection: KMS20_JCRB cell viability assay (AID 1918973); settings: CellTiter-Glo ATP, 48 h; viability (% of DMSO): at 45.8 µM (top of the series); further: nearly all actives have a fitted effect of over 45% in size
In short: (§2)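 Myeloma cell lines, 500 cells per well, exposed to MIPE 4.0 library compounds for 48 h at 37C, 5% CO2. Viability from ATP by CellTiter-Glo luminescence; normalised to DMSO (100%) and media-only (0%) wells.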

[3] = Quantitative High-Throughput drug screen in 47 multiple myeloma cell lines against the NCATS MIPE library collection: KMS21BM_JCRB cell viability assay (AID 1918974); settings: ATP luminescence, 48 h; viability: at 45.8 µM (top of the series) unless noted
In short: as §2

[4] = Quantitative High-Throughput drug screen in 47 multiple myeloma cell lines against the NCATS MIPE library collection: KMS26_JCRB cell viability assay (AID 1918975); settings: KMS26 myeloma cells viability, CellTiter-Glo ATP, 48 h; viability (% of DMSO): at 45.8 µM (top of the series); further: nearly all actives have a fitted effect of over 45% in size
In short: as §1

[5] = Quantitative High-Throughput drug screen in 47 multiple myeloma cell lines against the NCATS MIPE library collection: MOLP8_DSMZ cell viability assay (AID 1918977); settings: MOLP8 myeloma viability, CellTiter-Glo ATP luminescence, 48 h; viability (% of control): at 45.8 µM (top of the series); further: nearly all actives have a fitted effect of over 45% in size
In short: (§3)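 Plated at 500 cells per well, myeloma lines received MIPE 4.0 compounds by pin tool. Following 48 h culture at 37 °C, CellTiter-Glo luminescence gave viability relative to DMSO and media-only controls.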

[6] = Quantitative High-Throughput drug screen in 47 multiple myeloma cell lines against the NCATS MIPE library collection: NCIH929_DSMZ cell viability assay (AID 1918978); settings: NCI-H929 myeloma viability, CellTiter-Glo ATP, 48 h; viability, % of control: at 45.8 µM (top of the series); further: nearly all actives have a fitted effect of over 35% in size
In short: as §3

[7] = Quantitative High-Throughput drug screen in 47 multiple myeloma cell lines against the NCATS MIPE library collection: MM1S_ATCC cell viability assay (AID 1918980); settings: MM1S myeloma viability, CellTiter-Glo ATP luminescence, 48 h; viability (% of control): at 45.8 µM (top of the series); further: nearly all actives have a fitted effect of over 45% in size
In short: as §3

[8] = Quantitative High-Throughput drug screen in 47 multiple myeloma cell lines against the NCATS MIPE library collection: MMM1_PLB cell viability assay (AID 1918976); further: nearly all actives have a fitted effect of over 35% in size
In short: as §3

[9] = Quantitative High-Throughput drug screen in 47 multiple myeloma cell lines against the NCATS MIPE library collection: OCIMY1_PLB cell viability assay (AID 1918979); further: nearly all actives have a fitted effect of over 35% in size
In short: as §3
Potency means the concentration at half of the fitted maximal effect.

Structure (SMILES) | Potency [1] | Potency [2] | Potency [3] | Potency [4] | Potency [5] | Potency [6] | Potency [7] | viability (% of DMSO) [4] | Potency [8] | Potency [9] | viability (% of control) [7]
C[N+]1(C)[C@@H]2C[C@@H](OC(=O)C(O)(c3cccs3)c3cccs3)C[C@H]1[C@@H]1O[C@@H]12 | inactive | inactive | inconclusive: 0.0019 µM [cytotoxic, full curve, poor fit] | inconclusive: 0.0013 µM [cytotoxic, full curve, poor fit] | inactive | inactive | inconclusive: 0.0526 µM [rising, full curve, poor fit] |  |  |  | 
O=c1c(-c2ccc(O)cc2)coc2cc(O)cc(O)c12 | active: 2.64 µM | inconclusive: 0.833 µM [rising, full curve, poor fit] |  |  | inconclusive: 37.2 µM [cytotoxic, single point] | inconclusive: 37.2 µM [cytotoxic, single point] | inconclusive: 26.4 µM [cytotoxic, single point] | inconclusive: 116% [cytotoxic] | inconclusive: 14.8 µM [cytotoxic, partial curve, poor fit] |  | 
Cc1csc(NC(=O)c2sc3nc4c(c(C(F)(F)F)c3c2N)CCC4)n1 | inconclusive: 0.264 µM [cytotoxic, partial curve, poor fit] | inconclusive: 37.2 µM [cytotoxic, single point] | inconclusive: 2.96 µM [rising, partial curve] | inactive | inactive |  |  |  |  | inconclusive: 7.43 µM [cytotoxic, partial curve, poor fit] | 
Oc1ccc(C=Cc2cc(O)cc(O)c2)cc1 | inactive | inconclusive: 4.69 µM [cytotoxic, partial curve, poor fit] | inconclusive: 33.2 µM [rising, single point] | inconclusive: 11.8 µM [cytotoxic, partial curve, poor fit] | inconclusive: 7.43 µM [cytotoxic, partial curve] |  |  |  |  |  | 
Nc1ccc(-c2ccc3ncc4ccc(=O)n(-c5cccc(C(F)(F)F)c5)c4c3c2)cn1 | inconclusive: 0.0118 µM [cytotoxic, full curve] | inconclusive: 0.0418 µM [cytotoxic, full curve] |  |  |  | inconclusive: 0.0166 µM [cytotoxic, full curve] |  |  |  |  | 
C[C@@H](O[C@H]1OCCN(Cc2n[nH]c(=O)[nH]2)[C@@H]1c1ccc(F)cc1)c1cc(C(F)(F)F)cc(C(F)(F)F)c1 | inconclusive: 11.8 µM [cytotoxic, single point] | inconclusive: 33.2 µM [cytotoxic, single point] | inconclusive: 33.2 µM [rising, partial curve] |  | inconclusive: 20.9 µM [cytotoxic, partial curve, poor fit] | inconclusive: 23.5 µM [cytotoxic, single point] | inconclusive: 33.2 µM [cytotoxic, single point] |  | inconclusive: 33.2 µM [cytotoxic, partial curve, poor fit] | inconclusive: 37.2 µM [cytotoxic, single point] | 
CCCCCN=C(N)NN=Cc1c[nH]c2ccc(OC)cc12 | inconclusive: 2.64 µM [cytotoxic, full curve] | inconclusive: 3.72 µM [cytotoxic, full curve, poor fit] |  |  | inconclusive: 10.5 µM [cytotoxic, partial curve, poor fit] |  | inconclusive: 16.6 µM [cytotoxic, partial curve, poor fit] |  | inconclusive: 0.0053 µM [rising, full curve, poor fit] | inconclusive: 7.43 µM [cytotoxic, full curve] | 
CN(C)c1ccc2nc3ccc(=[N+](C)C)cc-3sc2c1 | active: 5.9 µM | active: 2.64 µM | active: 1.48 µM |  | active: 3.32 µM | active: 6.62 µM |  |  |  |  | 
CCC(C)SSc1ncc[nH]1 (configuration not stated) | active: 9.35 µM |  | active: 8.33 µM | active: 3.72 µM | active: 4.18 µM |  | inconclusive: 2.35 µM [cytotoxic, full curve, poor fit] |  | active: 7.43 µM |  | 
CC(=O)Nc1ccc([C@H](C)C(=O)Nc2ncc(C(C)C)s2)cc1 | inconclusive: 11.8 µM [cytotoxic, single point] |  | inconclusive: 37.2 µM [rising, partial curve] | active: 1.32 µM | active: 3.32 µM |  |  |  |  |  | 
COCCn1c2c([n+](Cc3cnccn3)c1C)C(=O)c1ccccc1C2=O | inconclusive: 0.0372 µM [cytotoxic, full curve, poor fit] | active: 0.0235 µM | inconclusive: 0.0047 µM [cytotoxic, full curve, poor fit] |  | active: 0.0235 µM |  | active: 0.0037 µM |  | active: 0.0166 µM |  | 
O=C(O)C=Cc1ccc(O)c(O)c1 | inconclusive: 20.9 µM [cytotoxic, partial curve] | inconclusive: 37.2 µM [cytotoxic, single point] | active: 13.2 µM | inconclusive: 20.9 µM [cytotoxic, partial curve, poor fit] | active: 20.9 µM | inconclusive: 23.5 µM [cytotoxic, single point] |  |  |  | active: 10.5 µM | 
O=C(NOCC1CC1)c1ccc(F)c(F)c1Nc1ccc(I)cc1Cl | active: 14.8 µM | active: 0.59 µM |  | inconclusive: 0.001 µM [cytotoxic] | active: 14.8 µM |  |  |  | inconclusive: 18.7 µM [cytotoxic, partial curve] | inconclusive: 20.9 µM [cytotoxic, partial curve] | 
CC[C@]1(O)C[C@@H]2CN(CCc3c([nH]c4ccccc34)[C@@](C(=O)OC)(c3cc4c(cc3OC)N(C=O)[C@@H]3C45CCN4CC=C[C@](CC)([C@H]45)[C@@H](OC(C)=O)[C@]3(O)C(=O)OC)C2)C1 (some centres not stated) | inactive | inconclusive: 18.7 µM [cytotoxic, partial curve, poor fit] | inconclusive: 0.0042 µM [rising, full curve, poor fit] |  | inconclusive: 18.7 µM [cytotoxic, partial curve, poor fit] | inconclusive: 18.7 µM [cytotoxic, partial curve] |  |  | active: 10.5 µM | active: 26.4 µM | 
CN1C(=O)C(Cc2c[nH]c3ccccc23)NC1=S (configuration not stated) | inconclusive: 1.32 µM [cytotoxic, partial curve, poor fit] | inactive | inconclusive: 26.4 µM [rising, partial curve, poor fit] |  | inactive |  | inactive |  |  |  | 
N#CC1(c2ccc(NC(=O)c3cccnc3NCc3ccncc3)cc2)CCCC1 | active: 0.469 µM | inconclusive: 8.33 µM [cytotoxic, partial curve, poor fit] | inconclusive: 33.2 µM [rising, partial curve] | inconclusive: 0.833 µM [rising, full curve, poor fit] | inconclusive: 0.0012 µM [cytotoxic, full curve, poor fit] |  | inactive |  | active: 18.7 µM |  | 
CC[C@@]1(O)C[C@H](O[C@H]2C[C@H](N(C)C)[C@H](O[C@H]3C[C@H](O)[C@H](O[C@H]4CCC(=O)[C@H](C)O4)[C@H](C)O3)[C@H](C)O2)c2c(cc3c(c2O)C(=O)c2c(O)cccc2C3=O)[C@@H]1C(=O)OC | inconclusive: 0.833 µM [cytotoxic, full curve] |  | inconclusive: 1.18 µM [cytotoxic, full curve, poor fit] | active: 0.743 µM | active: 0.296 µM | active: 0.264 µM |  |  | active: 0.296 µM |  | 
NC(CO)(CO)CCc1ccc(Sc2cccc(OCc3ccccc3)c2)cc1Cl |  | inconclusive: 5.26 µM [cytotoxic, partial curve, poor fit] | active: 13.2 µM | active: 18.7 µM | inconclusive: 20.9 µM [cytotoxic, partial curve, poor fit] |  |  |  |  |  | 
Cc1ccccc1C(C(=O)NC1CCCCC1)N(C(=O)Cn1ccnc1C)c1cccc(F)c1 (configuration not stated) |  | inconclusive: 0.166 µM [rising, full curve, poor fit] | inconclusive: 33.2 µM [rising, partial curve] | inconclusive: 37.2 µM [cytotoxic, single point] | inconclusive: 20.9 µM [cytotoxic, partial curve, poor fit] |  |  |  |  |  | inconclusive: 105% [cytotoxic]
CN1CC(=O)N2C(Cc3c([nH]c4ccccc34)[C@H]2c2ccc3c(c2)OCO3)C1=O (some centres not stated) |  | inactive | inconclusive: 33.2 µM [rising, single point] | inconclusive: 0.935 µM [cytotoxic, full curve, poor fit] | inactive | inactive |  |  | inconclusive: 8.33 µM [cytotoxic, partial curve, poor fit] |  | inconclusive: 113% [cytotoxic]

Limited to Potency [2] and Potency [8], for 2 of the compounds above:

| Structure (SMILES) | Potency [2] | Potency [8] |
| --- | --- | --- |
| Oc1ccc(C=Cc2cc(O)cc(O)c2)cc1 | inconclusive: 4.69 µM [cytotoxic, partial curve, poor fit] |  |
| Nc1ccc(-c2ccc3ncc4ccc(=O)n(-c5cccc(C(F)(F)F)c5)c4c3c2)cn1 | inconclusive: 0.0418 µM [cytotoxic, full curve] |  |
